{
  "sequences": {"note": "Amino acid sequences for entries named in this document (tags omitted). A change or cut given only in a name is not applied to a line headed by its entry.", "UniProt Q9NPF4": "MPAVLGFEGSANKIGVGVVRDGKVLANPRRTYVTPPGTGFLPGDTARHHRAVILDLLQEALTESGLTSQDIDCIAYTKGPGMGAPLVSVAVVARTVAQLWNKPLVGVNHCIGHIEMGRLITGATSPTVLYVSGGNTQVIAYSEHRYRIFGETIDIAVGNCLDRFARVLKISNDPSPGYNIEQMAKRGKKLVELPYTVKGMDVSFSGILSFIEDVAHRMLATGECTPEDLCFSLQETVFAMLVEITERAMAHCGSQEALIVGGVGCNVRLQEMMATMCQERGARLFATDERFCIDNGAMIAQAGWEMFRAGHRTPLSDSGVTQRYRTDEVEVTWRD", "UniProt Q86UY8": "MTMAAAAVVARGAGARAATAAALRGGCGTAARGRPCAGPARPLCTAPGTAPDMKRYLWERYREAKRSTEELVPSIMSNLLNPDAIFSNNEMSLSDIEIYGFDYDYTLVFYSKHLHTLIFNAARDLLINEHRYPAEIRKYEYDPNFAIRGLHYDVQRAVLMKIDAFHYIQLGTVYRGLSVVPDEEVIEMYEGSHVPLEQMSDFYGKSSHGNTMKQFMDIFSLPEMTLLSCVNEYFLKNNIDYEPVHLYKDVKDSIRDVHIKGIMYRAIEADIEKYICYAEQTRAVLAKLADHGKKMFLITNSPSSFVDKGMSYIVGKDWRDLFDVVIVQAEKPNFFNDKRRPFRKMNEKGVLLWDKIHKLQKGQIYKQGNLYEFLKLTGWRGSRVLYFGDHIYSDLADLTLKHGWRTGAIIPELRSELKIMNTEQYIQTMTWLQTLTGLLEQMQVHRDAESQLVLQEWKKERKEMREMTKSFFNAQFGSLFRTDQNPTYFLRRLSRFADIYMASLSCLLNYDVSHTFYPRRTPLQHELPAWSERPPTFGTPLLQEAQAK", "UniProt Q9H649": "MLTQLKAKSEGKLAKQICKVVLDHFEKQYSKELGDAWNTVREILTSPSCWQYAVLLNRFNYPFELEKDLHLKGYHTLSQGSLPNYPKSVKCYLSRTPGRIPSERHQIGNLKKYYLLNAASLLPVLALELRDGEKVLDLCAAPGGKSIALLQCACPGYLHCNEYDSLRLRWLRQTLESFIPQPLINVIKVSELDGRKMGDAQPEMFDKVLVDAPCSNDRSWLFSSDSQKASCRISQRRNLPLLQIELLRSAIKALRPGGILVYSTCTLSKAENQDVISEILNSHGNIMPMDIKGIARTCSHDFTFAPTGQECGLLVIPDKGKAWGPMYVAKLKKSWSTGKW", "UniProt P57740": "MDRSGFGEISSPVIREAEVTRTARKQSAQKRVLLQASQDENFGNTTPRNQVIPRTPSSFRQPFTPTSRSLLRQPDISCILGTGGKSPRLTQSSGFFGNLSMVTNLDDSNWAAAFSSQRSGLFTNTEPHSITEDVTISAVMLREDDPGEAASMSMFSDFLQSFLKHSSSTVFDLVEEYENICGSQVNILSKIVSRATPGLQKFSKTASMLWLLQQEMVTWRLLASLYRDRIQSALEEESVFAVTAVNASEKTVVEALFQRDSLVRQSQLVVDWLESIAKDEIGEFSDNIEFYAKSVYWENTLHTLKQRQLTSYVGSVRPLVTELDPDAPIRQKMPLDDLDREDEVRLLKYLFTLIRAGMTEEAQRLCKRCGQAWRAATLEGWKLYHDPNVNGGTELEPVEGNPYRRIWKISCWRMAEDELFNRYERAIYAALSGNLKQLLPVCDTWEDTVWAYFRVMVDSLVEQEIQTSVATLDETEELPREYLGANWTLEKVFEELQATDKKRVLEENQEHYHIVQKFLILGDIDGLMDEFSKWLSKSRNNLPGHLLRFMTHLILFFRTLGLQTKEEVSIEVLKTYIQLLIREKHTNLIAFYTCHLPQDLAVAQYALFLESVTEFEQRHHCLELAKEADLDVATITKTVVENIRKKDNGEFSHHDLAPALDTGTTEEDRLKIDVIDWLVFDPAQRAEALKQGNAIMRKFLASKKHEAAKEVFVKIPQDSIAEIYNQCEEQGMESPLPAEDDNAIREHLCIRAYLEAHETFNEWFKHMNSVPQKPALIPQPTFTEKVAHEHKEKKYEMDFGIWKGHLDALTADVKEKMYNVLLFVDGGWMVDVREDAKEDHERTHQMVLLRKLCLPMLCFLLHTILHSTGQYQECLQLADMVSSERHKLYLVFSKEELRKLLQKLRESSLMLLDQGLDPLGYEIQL", "UniProt Q00537": "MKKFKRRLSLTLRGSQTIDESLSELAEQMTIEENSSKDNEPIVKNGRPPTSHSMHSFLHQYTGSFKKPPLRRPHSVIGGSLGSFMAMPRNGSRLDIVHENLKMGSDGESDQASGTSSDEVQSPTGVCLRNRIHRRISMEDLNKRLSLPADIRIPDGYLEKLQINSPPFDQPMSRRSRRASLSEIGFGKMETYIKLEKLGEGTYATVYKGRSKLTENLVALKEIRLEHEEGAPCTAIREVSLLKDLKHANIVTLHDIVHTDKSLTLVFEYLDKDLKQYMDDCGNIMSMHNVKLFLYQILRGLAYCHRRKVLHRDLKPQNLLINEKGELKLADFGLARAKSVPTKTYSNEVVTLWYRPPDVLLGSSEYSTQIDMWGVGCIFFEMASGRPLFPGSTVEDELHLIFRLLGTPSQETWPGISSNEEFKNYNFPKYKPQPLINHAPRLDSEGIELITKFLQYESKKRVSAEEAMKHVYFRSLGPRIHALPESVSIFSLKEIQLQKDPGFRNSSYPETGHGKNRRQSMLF", "UniProt Q460N5, whole entry": "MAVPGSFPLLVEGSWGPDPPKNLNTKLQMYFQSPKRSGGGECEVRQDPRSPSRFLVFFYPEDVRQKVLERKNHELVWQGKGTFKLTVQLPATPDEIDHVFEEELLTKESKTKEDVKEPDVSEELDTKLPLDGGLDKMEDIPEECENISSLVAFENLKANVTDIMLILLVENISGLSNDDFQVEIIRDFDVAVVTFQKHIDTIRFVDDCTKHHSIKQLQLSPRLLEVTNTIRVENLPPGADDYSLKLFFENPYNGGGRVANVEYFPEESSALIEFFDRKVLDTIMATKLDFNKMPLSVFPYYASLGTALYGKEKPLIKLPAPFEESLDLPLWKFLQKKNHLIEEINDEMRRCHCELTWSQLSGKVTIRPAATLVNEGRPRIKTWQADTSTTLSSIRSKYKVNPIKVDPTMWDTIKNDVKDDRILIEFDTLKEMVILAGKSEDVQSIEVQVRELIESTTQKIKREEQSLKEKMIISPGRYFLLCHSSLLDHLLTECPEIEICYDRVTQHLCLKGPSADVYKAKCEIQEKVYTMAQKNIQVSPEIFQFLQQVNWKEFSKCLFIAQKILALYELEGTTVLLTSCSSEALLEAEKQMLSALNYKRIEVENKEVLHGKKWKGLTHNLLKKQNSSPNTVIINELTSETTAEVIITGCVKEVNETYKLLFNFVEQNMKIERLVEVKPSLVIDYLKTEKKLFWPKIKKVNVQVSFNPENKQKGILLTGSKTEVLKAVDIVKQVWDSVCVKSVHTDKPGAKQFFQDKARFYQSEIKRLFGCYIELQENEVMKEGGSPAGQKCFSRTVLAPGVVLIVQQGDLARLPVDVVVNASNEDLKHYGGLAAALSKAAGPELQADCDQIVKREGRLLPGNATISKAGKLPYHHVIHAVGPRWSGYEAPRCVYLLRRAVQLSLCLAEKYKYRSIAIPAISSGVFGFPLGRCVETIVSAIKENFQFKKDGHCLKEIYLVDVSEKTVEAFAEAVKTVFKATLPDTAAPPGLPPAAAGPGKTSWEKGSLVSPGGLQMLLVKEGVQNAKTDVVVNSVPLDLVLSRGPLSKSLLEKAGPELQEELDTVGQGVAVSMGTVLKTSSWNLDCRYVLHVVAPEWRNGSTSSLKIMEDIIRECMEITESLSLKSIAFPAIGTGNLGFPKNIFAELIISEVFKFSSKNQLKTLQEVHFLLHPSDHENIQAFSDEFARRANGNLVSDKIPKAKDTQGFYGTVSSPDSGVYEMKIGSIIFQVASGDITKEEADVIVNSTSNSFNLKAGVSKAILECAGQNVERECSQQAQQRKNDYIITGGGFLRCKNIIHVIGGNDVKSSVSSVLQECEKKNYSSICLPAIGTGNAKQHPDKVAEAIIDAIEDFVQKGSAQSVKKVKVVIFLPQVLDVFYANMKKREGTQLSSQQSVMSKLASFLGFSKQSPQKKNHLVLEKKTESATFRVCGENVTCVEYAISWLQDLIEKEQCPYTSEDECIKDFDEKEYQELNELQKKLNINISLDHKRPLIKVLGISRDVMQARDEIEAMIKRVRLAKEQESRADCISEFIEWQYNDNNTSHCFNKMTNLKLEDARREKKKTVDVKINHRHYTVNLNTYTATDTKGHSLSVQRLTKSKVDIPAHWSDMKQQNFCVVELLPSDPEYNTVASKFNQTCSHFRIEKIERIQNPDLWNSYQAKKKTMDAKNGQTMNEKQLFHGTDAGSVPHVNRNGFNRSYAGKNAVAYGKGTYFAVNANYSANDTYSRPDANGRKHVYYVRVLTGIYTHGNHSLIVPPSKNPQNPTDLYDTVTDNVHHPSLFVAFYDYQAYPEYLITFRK", "UniProt P09874, whole entry": "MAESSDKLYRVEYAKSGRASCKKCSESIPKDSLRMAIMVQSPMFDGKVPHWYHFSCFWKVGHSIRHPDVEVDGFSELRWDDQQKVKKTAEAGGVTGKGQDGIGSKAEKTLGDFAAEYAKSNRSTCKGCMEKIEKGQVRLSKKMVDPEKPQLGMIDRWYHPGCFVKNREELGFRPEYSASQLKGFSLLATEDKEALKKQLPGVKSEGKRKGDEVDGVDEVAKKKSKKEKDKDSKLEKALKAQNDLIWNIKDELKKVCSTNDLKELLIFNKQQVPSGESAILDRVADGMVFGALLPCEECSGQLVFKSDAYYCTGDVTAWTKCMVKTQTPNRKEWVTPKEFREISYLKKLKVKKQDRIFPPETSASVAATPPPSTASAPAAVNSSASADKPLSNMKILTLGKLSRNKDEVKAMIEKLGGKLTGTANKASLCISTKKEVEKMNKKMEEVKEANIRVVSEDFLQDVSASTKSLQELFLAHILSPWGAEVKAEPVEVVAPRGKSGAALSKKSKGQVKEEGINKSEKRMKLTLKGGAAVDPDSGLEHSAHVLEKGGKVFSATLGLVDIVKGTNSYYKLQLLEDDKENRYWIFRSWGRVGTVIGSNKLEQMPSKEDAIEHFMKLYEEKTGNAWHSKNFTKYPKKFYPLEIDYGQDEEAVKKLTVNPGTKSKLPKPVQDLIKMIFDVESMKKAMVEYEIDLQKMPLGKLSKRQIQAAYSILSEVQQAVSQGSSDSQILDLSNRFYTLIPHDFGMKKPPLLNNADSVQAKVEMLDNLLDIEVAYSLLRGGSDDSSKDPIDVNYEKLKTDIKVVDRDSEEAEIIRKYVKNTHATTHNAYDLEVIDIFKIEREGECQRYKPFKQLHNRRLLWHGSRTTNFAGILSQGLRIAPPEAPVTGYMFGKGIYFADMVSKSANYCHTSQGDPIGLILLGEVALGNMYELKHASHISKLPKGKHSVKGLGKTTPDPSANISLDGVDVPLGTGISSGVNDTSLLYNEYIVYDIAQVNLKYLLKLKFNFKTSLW", "UniProt Q6P996": "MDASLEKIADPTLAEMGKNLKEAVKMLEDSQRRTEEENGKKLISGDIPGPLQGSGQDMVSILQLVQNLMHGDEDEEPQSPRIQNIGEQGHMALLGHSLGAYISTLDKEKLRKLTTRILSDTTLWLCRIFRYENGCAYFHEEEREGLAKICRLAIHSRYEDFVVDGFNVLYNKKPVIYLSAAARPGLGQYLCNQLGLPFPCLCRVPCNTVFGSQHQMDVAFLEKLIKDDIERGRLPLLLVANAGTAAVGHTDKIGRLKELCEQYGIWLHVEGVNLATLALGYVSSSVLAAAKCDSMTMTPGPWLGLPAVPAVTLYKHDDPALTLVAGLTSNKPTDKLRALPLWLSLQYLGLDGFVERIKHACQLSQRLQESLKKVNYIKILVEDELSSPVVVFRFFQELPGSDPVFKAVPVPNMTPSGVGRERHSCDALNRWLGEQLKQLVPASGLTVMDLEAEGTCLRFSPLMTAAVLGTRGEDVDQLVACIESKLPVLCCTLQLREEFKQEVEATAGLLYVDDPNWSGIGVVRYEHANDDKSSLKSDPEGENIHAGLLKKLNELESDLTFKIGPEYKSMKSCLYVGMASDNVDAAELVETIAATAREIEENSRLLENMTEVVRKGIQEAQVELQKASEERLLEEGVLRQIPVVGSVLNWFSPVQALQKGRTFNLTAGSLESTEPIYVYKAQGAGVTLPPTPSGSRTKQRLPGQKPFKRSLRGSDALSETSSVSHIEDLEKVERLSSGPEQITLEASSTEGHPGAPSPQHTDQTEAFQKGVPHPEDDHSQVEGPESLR", "UniProt Q9UKL6": "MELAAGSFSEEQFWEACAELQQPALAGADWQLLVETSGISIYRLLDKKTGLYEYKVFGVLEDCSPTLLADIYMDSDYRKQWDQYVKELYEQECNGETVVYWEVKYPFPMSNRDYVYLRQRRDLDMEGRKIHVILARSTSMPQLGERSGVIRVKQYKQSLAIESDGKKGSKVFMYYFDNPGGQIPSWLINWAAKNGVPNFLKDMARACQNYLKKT"},
  "source": "the supplement of paper PMC7666118",
  "note": "This is one part of the list.",
  "data": [
    {"compound": "COc1ccc(Cn2ccc3ccc(C(=O)NO)cc32)cc1", "experiment": "dose-dependent thermal stabilisation call (2D-TPP, DLPTP, 10% FDR) (binary (1 = stabilised)); higher = stabilised by the compound", "settings": "system: HL-60 intact cells; concentration range 0.04-10 µM", "values": [
      {"target": "PDP2 (UniProt Q9P2J9)", "dose-dependent thermal stabilisation call": "inactive: 0"},
      {"target": "PFN1 (UniProt P07737)", "dose-dependent thermal stabilisation call": "inactive: 0"},
      {"target": "OSGEP (UniProt Q9NPF4)", "dose-dependent thermal stabilisation call": "inactive: 0"},
      {"target": "NUDT16L1 (UniProt Q9BRJ7)", "dose-dependent thermal stabilisation call": "inactive: 0"},
      {"target": "P4HTM (UniProt Q9NXG6)", "dose-dependent thermal stabilisation call": "inactive: 0"},
      {"target": "PCNP (UniProt Q8WW12)", "dose-dependent thermal stabilisation call": "inactive: 0"},
      {"target": "NT5DC3 (UniProt Q86UY8)", "dose-dependent thermal stabilisation call": "inactive: 0"},
      {"target": "NSUN3 (UniProt Q9H649)", "dose-dependent thermal stabilisation call": "inactive: 0"},
      {"target": "PCBD2 (UniProt Q9H0N5)", "dose-dependent thermal stabilisation call": "inactive: 0"},
      {"target": "NUP107 (UniProt P57740)", "dose-dependent thermal stabilisation call": "inactive: 0"},
      {"target": "NUDT15 (UniProt Q9NV35)", "dose-dependent thermal stabilisation call": "inactive: 0"},
      {"target": "PCTK2 (UniProt Q00537)", "dose-dependent thermal stabilisation call": "inactive: 0"},
      {"target": "PARP14 (UniProt Q460N5)", "dose-dependent thermal stabilisation call": "inactive: 0"},
      {"target": "OTUD5 (UniProt Q96G74)", "dose-dependent thermal stabilisation call": "inactive: 0"},
      {"target": "PARP1 (UniProt P09874)", "dose-dependent thermal stabilisation call": "inactive: 0"},
      {"target": "PAN3 (UniProt Q58A45)", "dose-dependent thermal stabilisation call": "inactive: 0"},
      {"target": "PDXDC1 (UniProt Q6P996)", "dose-dependent thermal stabilisation call": "inactive: 0"},
      {"target": "OGFR (UniProt Q9NZT2)", "dose-dependent thermal stabilisation call": "inactive: 0"},
      {"target": "NT5C1B (UniProt Q96P26)", "dose-dependent thermal stabilisation call": "inactive: 0"},
      {"target": "PANX1 (UniProt Q96RD7)", "dose-dependent thermal stabilisation call": "inactive: 0"},
      {"target": "PEX1 (UniProt O43933)", "dose-dependent thermal stabilisation call": "inactive: 0"},
      {"target": "ORC4L (UniProt O43929)", "dose-dependent thermal stabilisation call": "inactive: 0"},
      {"target": "P76", "dose-dependent thermal stabilisation call": "inactive: 0"},
      {"target": "PGD (UniProt P52209)", "dose-dependent thermal stabilisation call": "inactive: 0"},
      {"target": "NUP188 (UniProt Q5SRE5)", "dose-dependent thermal stabilisation call": "inactive: 0"},
      {"target": "PCMTD2 (UniProt Q9NV79)", "dose-dependent thermal stabilisation call": "inactive: 0"},
      {"target": "OXA1L (UniProt Q15070)", "dose-dependent thermal stabilisation call": "inactive: 0"},
      {"target": "PA2G4 (UniProt Q9UQ80)", "dose-dependent thermal stabilisation call": "inactive: 0"},
      {"target": "NUPL1 (UniProt Q9BVL2)", "dose-dependent thermal stabilisation call": "inactive: 0"},
      {"target": "PARG (UniProt Q86W56)", "dose-dependent thermal stabilisation call": "inactive: 0"},
      {"target": "NUCB1 (UniProt Q02818)", "dose-dependent thermal stabilisation call": "inactive: 0"},
      {"target": "ORC2L (UniProt Q13416)", "dose-dependent thermal stabilisation call": "inactive: 0"},
      {"target": "PDCL3 (UniProt Q9H2J4)", "dose-dependent thermal stabilisation call": "inactive: 0"},
      {"target": "P2RY11 (UniProt Q96G91)", "dose-dependent thermal stabilisation call": "inactive: 0"},
      {"target": "PES1 (UniProt O00541)", "dose-dependent thermal stabilisation call": "inactive: 0"},
      {"target": "PARVB (UniProt Q9HBI1)", "dose-dependent thermal stabilisation call": "inactive: 0"},
      {"target": "PAAF1 (UniProt Q9BRP4)", "dose-dependent thermal stabilisation call": "inactive: 0"},
      {"target": "PCTP (UniProt Q9UKL6)", "dose-dependent thermal stabilisation call": "inactive: 0"}
    ]}
  ]
}
